Laboratory results reported in PubChem BioAssay AID248 (DTP/NCI, 2004).
The list is a part of this screen's results and no random one: it is rich in T/C values a quarter to a half above the control, in often repeated tests (any T/C) and in doses without a T/C. Other doses and runs of a compound stand elsewhere. T/C gives the treated animals as a percentage of the vehicle group. Some entries give survivors of the animals treated and no T/C: the source files T/C as zero there, which appears to mark a toxic dose or a test without result, not a measured value. Some survivor counts are full or nearly so, which does not show that the dose was tolerated: survival well below the control is almost never listed, so the zero probably covers shortened survival too. Survivors were counted at the toxicity check, usually on the fifth day, unless a day is given; later deaths do not show. Schedule codes are those of the source, read here as Q, the interval in days (D) or hours (H), X, the number of doses. Some schedules carry Z or #; the key to these is not given. Some entries hold several experiments; the values are given in rising order. For survival time, the PubChem record calls one and a half times the control and up active, and a quarter to a half above the control has no call in these data; cut-offs in other NCI protocols can differ.

System: L1210 leukemia ip in BDF1 mice, survival T/C
Assay: NCI In Vivo Anticancer Drug Screen. Data for tumor model L1210 Leukemia (intraperitoneal) in B6D2F1 (BDF1) mice
Conditions: T/C endpoint: mean survival time, higher T/C = longer survival
[1] = dose: 100.0 mg/kg/injection, schedule: Q01DX001 (ip), vehicle: saline with Tween-80
[2] = dose: 100.0 mg/kg/injection, schedule: Q04DX003 (ip), vehicle: Klucel (hydroxypropylcellulose) (HPC)
[3] = dose: 200.0 mg/kg/injection, schedule: Q01DX001 (ip), vehicle: saline with Tween-80
[4] = dose: 200.0 mg/kg/injection, schedule: Q04DX003 (ip), vehicle: Klucel (hydroxypropylcellulose) (HPC)
[5] = dose: 400.0 mg/kg/injection, schedule: Q04DX003 (ip), vehicle: Klucel (hydroxypropylcellulose) (HPC)
[6] = dose: 400.0 mg/kg/injection, schedule: Q01DX009 (ip), vehicle: saline
[7] = dose: 100.0 mg/kg/injection, schedule: Q01DX001 (ip), vehicle: saline
[8] = dose: 200.0 mg/kg/injection, schedule: Q01DX001 (ip), vehicle: saline
[9] = dose: 400.0 mg/kg/injection, schedule: Q01DX001 (ip), vehicle: saline
[10] = dose: 400.0 mg/kg/injection, schedule: Q01DX001 (ip), vehicle: saline with Tween-80
[11] = dose: 400.0 mg/kg/injection, schedule: Q04DX003 (ip), vehicle: saline
[12] = dose: 25.0 mg/kg/injection, schedule: Q01DX009 (ip), vehicle: Klucel (hydroxypropylcellulose) (HPC)
[13] = dose: 50.0 mg/kg/injection, schedule: Q04DX003 (ip), vehicle: Klucel (hydroxypropylcellulose) (HPC)

Structure (SMILES): O=S1OCC2(CO1)COS(=O)OC2 (configuration not stated)
- survivor count (dose: 6.25 mg/kg/injection, schedule: Q01DX009 (ip), vehicle: saline): 0 of 6
- survivor count (dose: 12.5 mg/kg/injection, schedule: Q01DX001 (ip), vehicle: saline with Tween-80): 0 of 3
- survivor count (dose: 12.5 mg/kg/injection, schedule: Q04DX003 (ip), vehicle: saline): 0 of 6
- survivor count (dose: 25.0 mg/kg/injection, schedule: Q01DX001 (ip), vehicle: saline with Tween-80): 0 of 3
- survivor count (dose: 25.0 mg/kg/injection, schedule: Q04DX003 (ip), vehicle: saline): 0 of 6
- survivor count (dose: 50.0 mg/kg/injection, schedule: Q01DX001 (ip), vehicle: saline with Tween-80): 0 of 3
- survivor count (dose: 50.0 mg/kg/injection, schedule: Q04DX003 (ip), vehicle: saline): 0 of 6
- survivor count [1]: 0 of 3
- survivor count [2]: 0 of 6
- survivor count [3]: 0 of 3
- survivor count [4]: 0 of 6
- survivor count [5]: 0 of 6

Structure (SMILES): CCSc1ncc(Br)c(Sc2nc(N)nc3nc[nH]c23)n1
- T/C (dose: 3.0 mg/kg/injection, schedule: Q01DX Z (ip), vehicle: carboxymethylcellulose (CMC)): 131 % of control
- T/C (dose: 6.0 mg/kg/injection, schedule: Q01DX Z (ip), vehicle: carboxymethylcellulose (CMC)): 133 % of control
- T/C (dose: 50.0 mg/kg/injection, schedule: Q01DX001 (ip), vehicle: carboxymethylcellulose (CMC)): 126 % of control
- survivor count (dose: 50.0 mg/kg/injection, schedule: Q01DX Z (ip), vehicle: methylcellulose (MC)): 3 of 6
- T/C (dose: 100.0 mg/kg/injection, schedule: Q01DX001 (ip), vehicle: carboxymethylcellulose (CMC)): 139 % of control
- survivor count (dose: 100.0 mg/kg/injection, schedule: Q01DX Z (ip), vehicle: methylcellulose (MC)): 6 of 6
- survivor count (dose: 200.0 mg/kg/injection, schedule: Q01DX Z (ip), vehicle: methylcellulose (MC)): 3 of 6

Structure (SMILES): CCOC(=O)N1C=Cn2c(cnc2C)C1O (configuration not stated)
- survivor count (dose: 100.0 mg/kg/injection, schedule: Q01DX009 (ip), vehicle: saline): 5 of 6
- survivor count [6]: 3 of 6

Structure (SMILES): Nc1ccc(NS(=O)(=O)CS(=O)(=O)Nc2ccc(N)cc2)cc1
- survivor count (dose: 80.0 mg/kg/injection, schedule: Q01DX001 (ip), vehicle: saline): 2 of 6
- survivor count [7]: 0 of 4
- survivor count [8]: 0 of 4
- survivor count [9]: 0 of 4

Structure (SMILES): CC1CCCCN1C(=O)c1ccccc1C(=O)O (configuration not stated)
- survivor count (dose: 400.0 mg/kg/injection, schedule: Q04DX002 (ip), vehicle: Klucel (hydroxypropylcellulose) (HPC)): 1 of 3

Structure (SMILES): O=[N+]([O-])c1ccccc1N=N/C(Cc1ccccc1)=N\Nc1ccccc1
- survivor count [4]: 6 of 6

Structure (SMILES): CSc1ccc(C(=O)Nc2c(N)ncnc2N)cc1
- survivor count [3]: 0 of 6
- survivor count [10]: 1 of 6

Structure (SMILES): CO[C@H]1C=CC2=CCN3CCC4=C(CC(=O)OC4)[C@]23C1
- survivor count (dose: 40.0 mg/kg/injection, schedule: Q01DX001 (ip), vehicle: saline): 0 of 4
- survivor count (dose: 60.0 mg/kg/injection, schedule: Q01DX001 (ip), vehicle: saline): 0 of 4

Structure (SMILES): Cc1ccc(Cl)cc1NC(=O)c1ccc([N+](=O)[O-])cc1
- survivor count (dose: 200.0 mg/kg/injection, schedule: Q01DX009 (ip), vehicle: saline with Tween-80): 6 of 6

Structure (SMILES): CCOC(=O)NCCN(C)C
- survivor count [11]: 5 of 6

Structure (SMILES): CCOC(=O)c1ccc(N(CC(S)CNc2cc(C)nc(N)n2)S(=O)(=O)c2ccc(C)cc2)cc1 (configuration not stated)
- survivor count [1]: 2 of 6
- survivor count [7]: 4 of 6
- survivor count [3]: 1 of 6
- survivor count [10]: 0 of 6

Structure (SMILES): NC(=S)Nc1ccccn1
- survivor count (dose: 200.0 mg/kg/injection, schedule: Q04DX003 (ip), vehicle: saline with Tween-80): 3 of 6
- survivor count (dose: 400.0 mg/kg/injection, schedule: Q04DX003 (ip), vehicle: saline with Tween-80): 2 of 6

Structure (SMILES): CS(=O)(=O)OCC(=O)NCC(O)CNC(=O)COS(C)(=O)=O
- T/C (dose: 18.8 mg/kg/injection, schedule: Q01DX015 (ip), vehicle: saline): 125 % of control
- T/C (dose: 36.0 mg/kg/injection, schedule: Q01DX009 (ip), vehicle: saline): 126 % of control
- T/C (dose: 37.5 mg/kg/injection, schedule: Q01DX015 (ip), vehicle: saline): 125 % of control
- T/C (dose: 54.0 mg/kg/injection, schedule: Q01DX009 (ip), vehicle: saline): 139 % of control
- survivor count (dose: 256.0 mg/kg/injection, schedule: Q01DX009 (ip), vehicle: saline): 2 of 6
- survivor count [6]: 0 of 6
- survivor count (dose: 600.0 mg/kg/injection, schedule: Q01DX009 (ip), vehicle: saline): 0 of 6

Structure (SMILES): C/C=C/COc1cc[n+]([O-])cc1
- survivor count [11]: 0 of 6

Structure (SMILES): CC1(C)CC(=O)CC(C)(C#N)C1 (configuration not stated)
- survivor count [12]: 1 of 6
- survivor count [13]: 0 of 6
- survivor count [2]: 0 of 6
- survivor count [4]: 0 of 6
- survivor count [5]: 0 of 6

Structure (SMILES): COc1cc(C=C(C#N)C#N)cc(I)c1O
- survivor count [2]: 2 of 6 and 3 of 6
- survivor count [4]: 0 of 6
- survivor count [5]: 0 of 6

Structure (SMILES): Cc1cc(=O)[nH]c2c1CCC2
- survivor count (dose: 200.0 mg/kg/injection, schedule: Q01DX009 (ip), vehicle: saline): 3 of 6
- survivor count [11]: 5 of 6

Structure (SMILES): N=C(N=C(N)N)N(Cc1ccccc1)Cc1ccccc1
- survivor count (dose: 50.0 mg/kg/injection, schedule: Q01DX001 (ip), vehicle: water): 0 of 6
- survivor count (dose: 100.0 mg/kg/injection, schedule: Q01DX001 (ip), vehicle: water): 2 of 6
- survivor count (dose: 200.0 mg/kg/injection, schedule: Q01DX001 (ip), vehicle: water): 2 of 6
- survivor count (dose: 400.0 mg/kg/injection, schedule: Q01DX001 (ip), vehicle: water): 1 of 6

Structure (SMILES): C=C(C)Cc1c(C)c(Cl)cc(Cl)c1O
- survivor count [8]: 3 of 6
- survivor count [9]: 3 of 6

Structure (SMILES): CC(=O)OC1C(CO)OC2C1Oc1nc(=N)c(F)cn12 (configuration not stated)
- survivor count (dose: 200.0 mg/kg/injection, schedule: Q04DX002 (ip), vehicle: saline): 3 of 3
- survivor count (dose: 400.0 mg/kg/injection, schedule: Q04DX002 (ip), vehicle: saline): 3 of 3

Structure (SMILES): Cc1nc(C#N)c(C#N)nc1C
- survivor count [12]: 0 of 6
- survivor count [13]: 0 of 6
- survivor count [2]: 0 of 6
- survivor count [4]: 0 of 6
- survivor count [5]: 0 of 6

Structure (SMILES): N#C/C(=C\C1CCC(Cl)C(Cl)C1)C1CCC([N+](=O)[O-])CC1 (configuration not stated)
- survivor count (dose: 200.0 mg/kg/injection, schedule: Q04DX002 (ip), vehicle: saline with Tween-80): 3 of 3

Structure (SMILES): CNc1c(Cl)c(Cl)cc(Cl)c1Cl
- survivor count (dose: 400.0 mg/kg/injection, schedule: Q01DX009 (ip), vehicle: saline with Tween-80): 6 of 6
